The values that follow come from the supplement of paper PMC9433722.

One assay has as its system Saos-2. As to the kind of experiment: cell viability (CCK-8) relative to DMSO control (% of control); higher = less cytotoxic. The note with it: 10 µM; 48 h.
For another assay, the system named is U2OS. The description is as above. As to conditions: 10 µM; 48 h.

Structures can show the parent of a compound that is named as a salt. Some of the results follow. Many values rest on one well or one pass, so single values are uncertain.

Consider `CN1C2CCCC1CC(NC(=O)c1nn(C)c3ccccc13)C2` (configuration not stated) [Granisetron·HCl], for which the cell viability with Saos-2 was 65.3; in the assay on U2OS, 96.
Take `O=c1[nH]c(=O)n([C@H]2C[C@H](O)[C@@H](CO)O2)cc1F` [Floxuridine]: the figures for the cell viability with Saos-2 and in the assay on U2OS were 38.7 and 43.2, respectively.
Regarding `Cc1ccc(C(=O)c2cc(O)c(O)c([N+](=O)[O-])c2)cc1` [Tolcapone], the results for the cell viability with Saos-2 and in the assay with U2OS were 64.1 and 87.3, respectively.
The matching figures for `Nc1ccn(C[C@@H](CO)OCP(=O)(O)O)c(=O)n1` [Cidofovir]: 94.3 and 90.
For `CO/N=C1\CN(c2nc3c(cc2F)c(=O)c(C(=O)O)cn3C2CC2)CC1CN` (configuration not stated) [Gemifloxacin] the same measures were 104 and 85.4.
The matching figures for `CC1(C)O[C@@H]2[C@@H](CO[C@@]3(COS(N)(=O)=O)OC(C)(C)O[C@@H]23)O1` [Topiramate]: 104 and 89.6.
On to `CC(C)(S)[C@@H](N)C(=O)O` [Penicillamine (D-Penicillamine)], for which the values for the cell viability with Saos-2 and with U2OS were 104 and 108, respectively.
For `Cc1oncc1C(=O)Nc1ccc(C(F)(F)F)cc1` [Leflunomide] the same measures were 67.9 and 86.
For `C=CC[C@@H]1/C=C(\C)C[C@H](C)C[C@H](OC)[C@H]2O[C@@](O)(C(=O)C(=O)N3CCCC[C@H]3C(=O)O[C@H](/C(C)=C/[C@@H]3CC[C@@H](O)[C@H](OC)C3)[C@H](C)[C@@H](O)CC1=O)[C@H](C)C[C@@H]2OC` [Tacrolimus (Fk506)], the values for the cell viability in the assay on Saos-2 and in the assay with U2OS were 94.4 and 111, respectively.
For the compound `CC1(C)NC(=O)N(c2ccc([N+](=O)[O-])c(C(F)(F)F)c2)C1=O` [Nilutamide], the cell viability in the assay on Saos-2 was found to be 112; in the assay with U2OS, 98.
`NS(=O)(=O)c1cc2c(cc1C(F)(F)F)NC(Cc1ccccc1)NS2(=O)=O` (configuration not stated) [Bendroflumethiazide]: the results for the cell viability in the assay with Saos-2 and in the assay on U2OS were 112 and 91.5, respectively.
For `N#Cc1ccc(C(c2ccc(C#N)cc2)n2cncn2)cc1` [Letrozole] the same measures were 64.4 and 95.5.
The matching figures for `CCCCC(=O)N(Cc1ccc(-c2ccccc2-c2nnn[nH]2)cc1)[C@H](C(=O)O)C(C)C` [Valsartan]: 136 and 84.3.
For `Cc1cnc(C(=O)NCCc2ccc(S(=O)(=O)NC(=O)NC3CCCCC3)cc2)cn1` [Glipizide] the same measures were 63.3 and 109.
Consider `O=C1CCc2cc(OCCCCc3nnnn3C3CCCCC3)ccc2N1` [Cilostazol], for which the cell viability in the assay with Saos-2 is 94.8; in the assay with U2OS it was 93.3.
As for `OCCOCCN1CCN(C(c2ccccc2)c2ccc(Cl)cc2)CC1` (configuration not stated) [Hydroxyzine dihydrochloride], the values for the cell viability with Saos-2 and in the assay with U2OS were 99.7 and 101, respectively.
Take `CC(=O)O[C@H]1C(=O)[C@@]2(C)[C@H]([C@H](OC(=O)c3ccccc3)[C@]3(O)C[C@H](OC(=O)[C@H](O)[C@@H](NC(=O)c4ccccc4)c4ccccc4)C(C)=C1C3(C)C)[C@]1(OC(C)=O)CO[C@@H]1C[C@@H]2O` [Paclitaxel]: the figures for the cell viability with Saos-2 and in the assay on U2OS were 29.2 and 62.1, respectively.
For `O=c1n(CCCN2CCN(c3cccc(Cl)c3)CC2)nc2ccccn12` [Trazodone·HCl] the same measures were 97.6 and 85.
For `COC(=O)C1=C(C)NC(C)=C(C(=O)OCC(C)C)C1c1ccccc1[N+](=O)[O-]` (configuration not stated) [Nisoldipine] the same measures were 47.6 and 80.3.
The matching figures for `NNCCc1ccccc1` [Phenelzine Sulfate]: 105 and 105.
`CC(=O)/N=c1/sc(S(N)(=O)=O)nn1C` [Methazolamide]: the cell viability with Saos-2 was 90.8; with U2OS it was 92.5.
The matching figures for `O=C(O)C(=O)O.[NH-][C@@H]1CCCC[C@H]1[NH-].[Pt+2]` [Oxaliplatin]: 53.1 and 71.8.
For `Cc1nccn1CC1CCc2c(c3ccccc3n2C)C1=O` (configuration not stated) [Ondansetron] the same measures were 63.5 and 101.
For `Cc1cn([C@H]2C=C[C@@H](CO)O2)c(=O)[nH]c1=O` [Stavudine] the same measures were 106 and 107.
Turning to `N=C(N)NC(=O)c1nc(Cl)c(N)nc1N` [Amiloride . hydrochloride . dihydrate], the cell viability in the assay on Saos-2 turned out to be 54.8; in the assay on U2OS, 115.
On to `COc1cc(CNC(=O)CCCC/C=C/C(C)C)ccc1O` [Capsaicin], for which the results for the cell viability in the assay on Saos-2 and in the assay with U2OS were 56 and 101, respectively.
In the case of `C[C@]12CC[C@@H]3c4ccc(OS(=O)(=O)O)cc4CC[C@H]3[C@@H]1CCC2=O` [Estropipate], the figures for the cell viability in the assay on Saos-2 and in the assay with U2OS were 100 and 79.9, respectively.
The matching figures for `O=c1[nH]cnc2c1ncn2[C@H]1CC[C@@H](CO)O1` [Didanosine]: 66.4 and 112.
As for `Nc1ccn([C@@H]2O[C@H](CO)[C@@H](O)C2(F)F)c(=O)n1` [Gemcitabine . hydrochloride], the cell viability was determined as 42.6 in the assay on Saos-2 and 84.5 in the assay on U2OS.
With `COc1ccc2[nH]c([S+]([O-])Cc3ncc(C)c(OC)c3C)nc2c1` (configuration not stated) [Omeprazole], the cell viability with Saos-2 came to 67.4; in the assay on U2OS, 90.6.
For `C=C1/C(=C\C=C2/CCC[C@]3(C)[C@@H]([C@H](C)/C=C/[C@@H](O)C4CC4)CC[C@@H]23)C[C@@H](O)C[C@@H]1O` [Calcipotriene] the same measures were 65.4 and 109.
